Results from the supplement of paper PMC6411743.
± gives the standard deviation of the averaged measurements. This is one part of the list.

Protein sequences, listed by entry. Tags and fused reporters are not part of them. Lines headed by an entry give the natural chain unless they say otherwise; changes in a name come on top.
UniProt Q16864, whole entry: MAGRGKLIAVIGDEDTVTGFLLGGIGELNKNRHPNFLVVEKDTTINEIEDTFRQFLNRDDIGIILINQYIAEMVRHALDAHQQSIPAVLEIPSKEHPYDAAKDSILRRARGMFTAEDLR
UniProt Q15633: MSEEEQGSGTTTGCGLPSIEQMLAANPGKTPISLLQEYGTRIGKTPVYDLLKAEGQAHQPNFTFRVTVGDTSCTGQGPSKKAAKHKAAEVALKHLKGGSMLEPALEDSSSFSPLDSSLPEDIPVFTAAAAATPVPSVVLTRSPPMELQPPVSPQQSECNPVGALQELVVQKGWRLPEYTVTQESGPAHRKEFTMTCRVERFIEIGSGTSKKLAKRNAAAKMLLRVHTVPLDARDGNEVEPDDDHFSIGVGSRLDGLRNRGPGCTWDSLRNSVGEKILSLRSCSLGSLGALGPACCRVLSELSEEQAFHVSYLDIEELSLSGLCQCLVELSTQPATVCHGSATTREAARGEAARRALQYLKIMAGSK
UniProt Q15751: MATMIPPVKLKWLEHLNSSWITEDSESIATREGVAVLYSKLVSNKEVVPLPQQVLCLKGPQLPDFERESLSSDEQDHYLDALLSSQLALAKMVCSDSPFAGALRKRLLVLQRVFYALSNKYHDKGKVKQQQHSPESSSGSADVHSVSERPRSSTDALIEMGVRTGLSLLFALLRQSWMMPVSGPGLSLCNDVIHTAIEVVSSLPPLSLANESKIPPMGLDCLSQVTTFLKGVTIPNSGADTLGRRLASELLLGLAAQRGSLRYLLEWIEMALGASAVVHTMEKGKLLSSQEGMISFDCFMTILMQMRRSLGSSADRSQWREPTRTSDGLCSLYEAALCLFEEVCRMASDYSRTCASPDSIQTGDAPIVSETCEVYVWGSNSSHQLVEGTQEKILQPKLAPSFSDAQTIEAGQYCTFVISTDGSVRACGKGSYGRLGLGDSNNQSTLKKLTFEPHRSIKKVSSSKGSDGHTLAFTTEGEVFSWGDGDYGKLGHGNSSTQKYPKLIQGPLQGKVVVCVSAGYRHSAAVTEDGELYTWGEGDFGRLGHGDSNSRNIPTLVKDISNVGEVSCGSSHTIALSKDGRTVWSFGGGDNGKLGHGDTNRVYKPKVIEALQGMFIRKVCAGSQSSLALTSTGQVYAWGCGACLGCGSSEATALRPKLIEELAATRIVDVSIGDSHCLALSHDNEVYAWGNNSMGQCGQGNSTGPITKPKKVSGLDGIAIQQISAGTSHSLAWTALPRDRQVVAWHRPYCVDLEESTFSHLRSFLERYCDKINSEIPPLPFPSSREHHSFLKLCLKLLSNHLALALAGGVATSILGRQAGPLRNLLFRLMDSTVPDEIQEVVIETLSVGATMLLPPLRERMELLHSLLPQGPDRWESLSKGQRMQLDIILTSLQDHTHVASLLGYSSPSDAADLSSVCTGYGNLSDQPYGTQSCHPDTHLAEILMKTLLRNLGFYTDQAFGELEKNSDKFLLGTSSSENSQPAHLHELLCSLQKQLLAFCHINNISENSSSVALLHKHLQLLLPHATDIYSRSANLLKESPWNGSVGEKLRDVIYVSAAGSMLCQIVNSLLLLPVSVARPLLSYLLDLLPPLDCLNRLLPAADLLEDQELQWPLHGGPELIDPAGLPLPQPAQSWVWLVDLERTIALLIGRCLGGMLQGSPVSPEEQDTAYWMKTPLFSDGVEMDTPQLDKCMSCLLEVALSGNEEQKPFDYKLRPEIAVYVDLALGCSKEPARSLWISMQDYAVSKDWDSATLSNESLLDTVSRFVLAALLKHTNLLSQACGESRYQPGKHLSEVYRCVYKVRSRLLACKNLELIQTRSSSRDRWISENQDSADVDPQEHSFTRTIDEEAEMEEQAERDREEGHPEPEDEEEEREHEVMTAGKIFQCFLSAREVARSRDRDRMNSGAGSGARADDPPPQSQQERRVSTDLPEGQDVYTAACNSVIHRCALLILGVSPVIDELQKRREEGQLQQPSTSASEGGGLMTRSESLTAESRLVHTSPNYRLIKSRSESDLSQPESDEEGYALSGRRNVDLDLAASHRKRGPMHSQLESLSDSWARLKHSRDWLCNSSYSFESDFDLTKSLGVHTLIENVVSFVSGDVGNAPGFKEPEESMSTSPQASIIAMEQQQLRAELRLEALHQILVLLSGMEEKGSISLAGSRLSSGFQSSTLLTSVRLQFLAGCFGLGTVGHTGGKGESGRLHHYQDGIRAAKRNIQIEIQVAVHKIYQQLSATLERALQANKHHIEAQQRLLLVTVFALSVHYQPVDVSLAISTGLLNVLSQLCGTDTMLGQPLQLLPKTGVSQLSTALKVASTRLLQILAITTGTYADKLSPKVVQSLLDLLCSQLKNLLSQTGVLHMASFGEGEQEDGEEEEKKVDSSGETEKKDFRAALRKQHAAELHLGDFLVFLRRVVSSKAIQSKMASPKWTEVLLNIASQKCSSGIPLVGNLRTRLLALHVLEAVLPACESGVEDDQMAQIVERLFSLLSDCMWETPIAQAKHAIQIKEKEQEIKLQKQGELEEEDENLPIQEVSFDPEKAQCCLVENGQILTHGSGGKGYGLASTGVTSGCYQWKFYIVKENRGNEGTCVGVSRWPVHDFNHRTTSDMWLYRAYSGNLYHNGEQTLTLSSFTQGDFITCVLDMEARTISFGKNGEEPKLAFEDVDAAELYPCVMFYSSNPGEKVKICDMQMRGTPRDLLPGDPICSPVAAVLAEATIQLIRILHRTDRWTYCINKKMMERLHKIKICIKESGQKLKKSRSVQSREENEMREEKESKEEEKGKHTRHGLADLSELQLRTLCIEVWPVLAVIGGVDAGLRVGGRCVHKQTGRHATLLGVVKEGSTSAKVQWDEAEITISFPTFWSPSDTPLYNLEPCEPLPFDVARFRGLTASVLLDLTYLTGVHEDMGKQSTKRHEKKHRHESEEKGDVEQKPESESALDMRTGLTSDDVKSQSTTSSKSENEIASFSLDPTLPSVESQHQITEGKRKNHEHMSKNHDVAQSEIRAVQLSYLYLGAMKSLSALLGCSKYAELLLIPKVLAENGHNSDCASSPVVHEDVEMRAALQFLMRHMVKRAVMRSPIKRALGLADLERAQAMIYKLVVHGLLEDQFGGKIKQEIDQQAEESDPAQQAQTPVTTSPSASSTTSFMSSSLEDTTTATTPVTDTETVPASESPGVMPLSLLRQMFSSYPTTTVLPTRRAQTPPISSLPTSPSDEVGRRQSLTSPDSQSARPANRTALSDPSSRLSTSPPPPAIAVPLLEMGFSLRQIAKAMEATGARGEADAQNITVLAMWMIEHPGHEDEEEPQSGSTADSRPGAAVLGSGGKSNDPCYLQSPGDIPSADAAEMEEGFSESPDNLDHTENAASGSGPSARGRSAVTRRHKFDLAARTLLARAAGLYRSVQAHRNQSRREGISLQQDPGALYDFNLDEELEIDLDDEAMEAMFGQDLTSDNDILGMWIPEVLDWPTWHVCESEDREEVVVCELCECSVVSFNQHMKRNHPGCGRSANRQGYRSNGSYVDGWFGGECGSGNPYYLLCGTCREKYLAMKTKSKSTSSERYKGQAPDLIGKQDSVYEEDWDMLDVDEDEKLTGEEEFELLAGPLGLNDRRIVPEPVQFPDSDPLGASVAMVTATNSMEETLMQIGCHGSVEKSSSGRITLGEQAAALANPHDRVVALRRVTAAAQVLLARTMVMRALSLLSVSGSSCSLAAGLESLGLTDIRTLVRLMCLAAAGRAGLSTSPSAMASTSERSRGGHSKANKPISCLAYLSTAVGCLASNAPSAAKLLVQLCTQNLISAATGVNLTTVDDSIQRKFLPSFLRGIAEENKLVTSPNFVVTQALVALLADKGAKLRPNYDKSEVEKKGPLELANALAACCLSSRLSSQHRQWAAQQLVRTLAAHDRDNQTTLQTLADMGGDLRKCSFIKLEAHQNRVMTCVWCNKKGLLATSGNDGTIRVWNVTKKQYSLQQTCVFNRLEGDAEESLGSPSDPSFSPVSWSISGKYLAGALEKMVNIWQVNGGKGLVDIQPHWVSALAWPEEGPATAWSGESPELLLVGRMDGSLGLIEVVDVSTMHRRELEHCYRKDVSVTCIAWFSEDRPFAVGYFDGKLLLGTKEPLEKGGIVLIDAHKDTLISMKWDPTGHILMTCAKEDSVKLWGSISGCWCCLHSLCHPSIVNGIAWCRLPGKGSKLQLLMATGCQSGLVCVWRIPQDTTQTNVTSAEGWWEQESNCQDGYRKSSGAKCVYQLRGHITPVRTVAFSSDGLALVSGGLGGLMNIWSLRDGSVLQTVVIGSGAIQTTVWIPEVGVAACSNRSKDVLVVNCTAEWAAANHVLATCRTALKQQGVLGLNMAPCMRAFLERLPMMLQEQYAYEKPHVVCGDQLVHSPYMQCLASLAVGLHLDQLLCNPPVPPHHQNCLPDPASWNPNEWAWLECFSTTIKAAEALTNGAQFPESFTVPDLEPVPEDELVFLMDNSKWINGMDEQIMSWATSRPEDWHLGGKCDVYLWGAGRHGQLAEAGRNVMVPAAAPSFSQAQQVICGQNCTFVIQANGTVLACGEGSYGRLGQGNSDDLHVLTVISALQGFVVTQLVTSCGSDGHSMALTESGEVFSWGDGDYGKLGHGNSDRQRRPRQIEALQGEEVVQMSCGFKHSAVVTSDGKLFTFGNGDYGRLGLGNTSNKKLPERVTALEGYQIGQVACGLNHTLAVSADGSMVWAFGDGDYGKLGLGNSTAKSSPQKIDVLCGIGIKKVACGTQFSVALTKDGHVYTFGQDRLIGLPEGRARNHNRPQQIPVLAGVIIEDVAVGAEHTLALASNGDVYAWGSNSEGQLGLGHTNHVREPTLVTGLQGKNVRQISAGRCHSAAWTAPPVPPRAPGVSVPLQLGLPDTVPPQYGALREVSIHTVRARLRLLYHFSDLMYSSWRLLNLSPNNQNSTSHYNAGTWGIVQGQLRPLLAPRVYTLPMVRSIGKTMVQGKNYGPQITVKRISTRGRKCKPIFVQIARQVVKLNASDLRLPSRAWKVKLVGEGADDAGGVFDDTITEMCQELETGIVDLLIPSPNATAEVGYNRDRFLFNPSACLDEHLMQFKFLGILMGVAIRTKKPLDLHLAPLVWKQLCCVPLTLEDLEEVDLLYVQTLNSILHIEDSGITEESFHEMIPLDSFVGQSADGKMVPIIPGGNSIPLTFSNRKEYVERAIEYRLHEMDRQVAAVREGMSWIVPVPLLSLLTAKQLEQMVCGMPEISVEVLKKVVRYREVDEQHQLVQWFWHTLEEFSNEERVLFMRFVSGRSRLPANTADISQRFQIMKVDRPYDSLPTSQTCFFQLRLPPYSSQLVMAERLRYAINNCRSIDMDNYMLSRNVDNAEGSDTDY
UniProt Q15691: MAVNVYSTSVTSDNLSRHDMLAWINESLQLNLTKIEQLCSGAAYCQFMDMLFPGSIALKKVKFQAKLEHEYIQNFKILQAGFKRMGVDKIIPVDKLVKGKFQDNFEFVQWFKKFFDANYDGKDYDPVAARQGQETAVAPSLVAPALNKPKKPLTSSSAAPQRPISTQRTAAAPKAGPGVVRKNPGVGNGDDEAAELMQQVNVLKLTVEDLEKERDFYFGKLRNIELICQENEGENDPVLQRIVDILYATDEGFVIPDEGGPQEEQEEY

Compound: Nc1nc2c(ncn2[C@@H]2O[C@H](COP(=O)(O)OP(=O)(O)OP(=O)(O)O)[C@@H](O)[C@H]2O)c(=O)[nH]1 [guanosine triphosphate]
Assay: NP40-soluble protein abundance relative to vehicle (solubility fold change) (ratio); higher = more soluble protein in presence of GTP
Procedure: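 Solubility proteome profiling in Jurkat crude lysate. Lysate was treated with Mg-GTP (0.1-10 mM) for 10 min at room temperature and 3 min at 37 °C, then solubilised with 0.8% NP40 and benzonase, followed by ultracentrifugation. Proteins were quantified by TMT10 LC-MS/MS; the value is the NP40-soluble abundance relative to the NP40-processed vehicle, from 3 independent experiments.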

Target | NP40-soluble protein abundance (concentration: 0.1mM) | NP40-soluble protein abundance (concentration: 0.5mM) | NP40-soluble protein abundance (concentration: 1mM) | NP40-soluble protein abundance (concentration: 2mM) | NP40-soluble protein abundance (concentration: 4mM) | NP40-soluble protein abundance (concentration: 6mM) | NP40-soluble protein abundance (concentration: 8mM) | NP40-soluble protein abundance (concentration: 10mM)
UniProt Q16864 and related entries | 0.906 ± 0.02 | 0.931 ± 0.05 | 1.032 ± 0.01 | 1.04 ± 0.067 | 0.999 ± 0.061 | 1.02 ± 0.034 | 0.992 ± 0.073 | 1.02 ± 0.027
MAPRE2 (UniProt Q15555) | 0.91 ± 0.046 | 0.917 ± 0.065 | 0.95 ± 0.031 | 0.892 ± 0.058 | 0.859 ± 0.066 | 0.903 ± 0.066 | 0.9 ± 0.05 | 0.871 ± 0.042
UniProt Q15633 and related entries | 1.03 ± 0.023 | 0.983 ± 0.043 | 1.059 ± 0.0034 | 1.08 ± 0.03 | 1.06 ± 0.034 | 1.06 ± 0.03 | 1.09 ± 0.033 | 1.11 ± 0.042
HERC1 (UniProt Q15751) | 1.12 ± 0.11 | 1.13 ± 0.14 | 1.11 ± 0.099 | 1.12 ± 0.12 | 1.15 ± 0.2 | 1.13 ± 0.15 | 1.17 ± 0.23 | 1.08 ± 0.15
MAPRE1 (UniProt Q15691) | 0.848 ± 0.025 | 0.834 ± 0.023 | 0.946 ± 0.043 | 0.932 ± 0.017 | 0.88 ± 0.021 | 0.922 ± 0.046 | 0.87 ± 0.056 | 0.949 ± 0.034
